Source: publication doi:10.1101/2023.05.22.541733
Read-outs that look alike come from different tables or passages of the source. These are yes or no findings as the source states them, for the method shown. Binding seen in cells or lysates may run through a third protein. Some entries that bind do so weakly or less than the wild type. Sequences can lack the tags named with a protein.

Assays:
[1] = molecular target: T1, sodium/iodide symporter (NIS) tagged with LgBiT (human) (UniProt Q92911); assay: split reporter
T1 sequence: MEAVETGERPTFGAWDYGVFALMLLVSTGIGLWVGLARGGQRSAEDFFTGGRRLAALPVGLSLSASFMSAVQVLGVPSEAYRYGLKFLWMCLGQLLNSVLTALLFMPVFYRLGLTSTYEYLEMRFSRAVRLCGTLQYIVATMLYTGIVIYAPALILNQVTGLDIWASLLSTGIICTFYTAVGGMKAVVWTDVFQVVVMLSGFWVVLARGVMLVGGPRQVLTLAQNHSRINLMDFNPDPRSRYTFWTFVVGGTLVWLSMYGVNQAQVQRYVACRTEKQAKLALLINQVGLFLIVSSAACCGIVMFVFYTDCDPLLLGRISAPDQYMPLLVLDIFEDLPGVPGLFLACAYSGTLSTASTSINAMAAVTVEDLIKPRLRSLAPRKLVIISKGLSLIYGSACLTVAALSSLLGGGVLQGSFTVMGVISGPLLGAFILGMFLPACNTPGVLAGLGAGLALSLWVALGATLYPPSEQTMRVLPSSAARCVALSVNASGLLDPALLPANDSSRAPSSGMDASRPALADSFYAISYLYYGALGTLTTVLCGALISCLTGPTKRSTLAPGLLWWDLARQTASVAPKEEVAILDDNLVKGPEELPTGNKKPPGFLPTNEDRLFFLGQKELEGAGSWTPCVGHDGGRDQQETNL

[2] = molecular target: T1, sodium/iodide symporter (NIS) tagged with LgBiT (human); assay: split reporter; remark: listed apart in the source

B1: PTTG1 Binding Factor (PBF) tagged with SmBiT (protein, UniProt P53801 33-180)
chain: QEPPGAACSQNTNKTCEECLKNVSCLWCNTNKACLDYPVTSVLPPASLCKLSSARWGVCWVNFEALIITMSVVGGTLLLGIAICCCCCCRRKRSRKPDRSEEKAMREREERRIRQEERRAEMKTRHDEIRKKYGLFKEENPYARFENN
[1]
  binding: binds
[2]
  binding: binds
